Test results from doi:10.1101/2024.12.06.24318402.
These are yes or no findings as the source states them, for the method shown. In cells and extracts the contact can be indirect. Some results given as binding are weak or reduced against the parent protein; the word gives no strength.

Target: KCNE1 (MinK), modulatory subunit of KCNQ1 (human (endogenous in iPSC-aCMs)) (UniProt P15382)
Experiment: co-IP; anti-KCNE1 (Alomone APC-163) IP from precleared RIPA lysates (500 ug) of WT and TTN-T32756I human iPSC-aCMs, Protein A/G agarose beads, 4°C; immunoblot for FHL2 and MinK

B1: Four-and-a-Half Lim domains 2 (FHL2) (protein, UniProt Q14192 1-279)
chain: MTERFDCHHCNESLFGKKYILREESPYCVVCFETLFANTCEECGKPIGCDCKDLSYKDRHWHEACFHCSQCRNSLVDKPFAAKEDQLLCTDCYSNEYSSKCQECKKTIMPGTRKMEYKGSSWHETCFICHRCQQPIGTKSFIPKDNQNFCVPCYEKQHAMQCVQCKKPITTGGVTYREQPWHKECFVCTACRKQLSGQRFTARDDFAYCLNCFCDLYAKKCAGCTNPISGLGGTKYISFEERQWHNDCFNCKKCSLSLVGRGFLTERDDILCPDCGKDI
binding: binds
